From the supplement of paper PMC6078165

Test system: MDAMB436
Experiment: relative JC-1 red fluorescence (viability) vs pre-drug, coculture with fibroblast (fraction); higher = more viable cancer cells
Procedure: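 JC-1 labelled TNBC cells cocultured 1:1 (1,500 cells each) with CellTrace Violet stained primary or stromal fibroblasts in 384-well plates in FluoroBrite medium, treated with one of 42 anticancer drugs at 0.1, 1, 10 or 100 uM. JC-1 red fluorescence (mitochondrial integrity in cancer cells only) was read by plate reader every 8 h for 72 h. Values are normalised to each well's pre-drug value. The stock of one drug was tenfold lower, so its dose labels may be too high.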

CC[C@]1(O)C[C@H]2CN(CCc3c([nH]c4ccccc34)[C@@](C(=O)OC)(c3cc4c(cc3OC)N(C=O)[C@H]3[C@@](O)(C(=O)OC)[C@H](OC(C)=O)[C@]5(CC)C=CCN6CC[C@]43[C@@H]65)C2)C1 [Vincristine]
relative JC-1 red fluorescence
Conditions	8 h	16 h	24 h	32 h	40 h	48 h	56 h	64 h	72 h
10 µM, coculture fibroblast: C12385	0.79682 ± 0.00049	0.7746 ± 0.0043	0.7684 ± 0.0057	0.703 ± 0.0078	0.672 ± 0.015	0.643 ± 0.016	0.615 ± 0.019	0.598 ± 0.017	0.593 ± 0.023
10 µM, coculture fibroblast: H6013	0.8167 ± 0.0076	0.7983 ± 0.0063	0.8022 ± 0.0052	0.817 ± 0.011	0.808 ± 0.011	0.859 ± 0.03	0.84 ± 0.028	0.845 ± 0.021	0.825 ± 0.029
10 µM, coculture fibroblast: H6019	0.793 ± 0.008	0.7719 ± 0.0017	0.8001 ± 0.0055	0.769 ± 0.014	0.771 ± 0.014	0.783 ± 0.014	0.778 ± 0.017	0.788 ± 0.011	0.798 ± 0.019
10 µM, coculture fibroblast: H6076	0.714 ± 0.026	0.6774 ± 0.0034	0.68 ± 0.016	0.654 ± 0.013	0.653 ± 0.015	0.636 ± 0.022	0.663 ± 0.011	0.664 ± 0.0097	0.6718 ± 0.0058
10 µM, coculture fibroblast: H6231	0.744 ± 0.021	0.625 ± 0.01	0.649 ± 0.0035	0.5647 ± 0.0015	0.55354 ± 0.00044	0.517 ± 0.01	0.515 ± 0.0069	0.5038 ± 0.0023	0.496 ± 0.0068
10 µM, coculture fibroblast: HADF	0.811 ± 0.023	0.8088 ± 0.004	0.796 ± 0.028	0.774 ± 0.049	0.765 ± 0.07	0.786 ± 0.084	0.721 ± 0.11	0.71 ± 0.13	0.671 ± 0.12
10 µM, coculture fibroblast: HCFa	0.802 ± 0.016	0.791 ± 0.022	0.773 ± 0.029	0.771 ± 0.052	0.777 ± 0.072	0.815 ± 0.084	0.761 ± 0.095	0.77 ± 0.11	0.729 ± 0.12
10 µM, coculture fibroblast: HCPF	0.702 ± 0.043	0.658 ± 0.039	0.653 ± 0.044	0.59 ± 0.033	0.585 ± 0.023	0.552 ± 0.019	0.538 ± 0.011	0.5195 ± 0.0037	0.515 ± 0.0073
10 µM, coculture fibroblast: HHSteC	0.825 ± 0.0049	0.826 ± 0.014	0.814 ± 0.019	0.796 ± 0.025	0.812 ± 0.033	0.844 ± 0.049	0.784 ± 0.047	0.78 ± 0.047	0.749 ± 0.043
10 µM, coculture fibroblast: HMF	0.674 ± 0.057	0.64 ± 0.039	0.636 ± 0.035	0.597 ± 0.027	0.59 ± 0.011	0.557 ± 0.0076	0.558 ± 0.0059	0.55 ± 0.011	0.551 ± 0.00084
10 µM, coculture fibroblast: HPFa	0.916 ± 0.056	0.867 ± 0.023	0.86 ± 0.021	0.824 ± 0.042	0.831 ± 0.046	0.849 ± 0.05	0.783 ± 0.054	0.769 ± 0.048	0.728 ± 0.049
10 µM, coculture fibroblast: HUF	0.854 ± 0.011	0.809 ± 0.022	0.804 ± 0.042	0.742 ± 0.057	0.691 ± 0.069	0.663 ± 0.079	0.638 ± 0.085	0.639 ± 0.097	0.631 ± 0.11
10 µM, coculture fibroblast: Hs5	0.778 ± 0.038	0.743 ± 0.03	0.729 ± 0.01	0.671 ± 0.0084	0.6472 ± 0.0039	0.6061 ± 0.005	0.604 ± 0.034	0.57 ± 0.043	0.576 ± 0.045
10 µM, coculture fibroblast: Hs27A	0.8715 ± 0.0085	0.831 ± 0.031	0.837 ± 0.049	0.839 ± 0.071	0.833 ± 0.088	0.915 ± 0.11	0.832 ± 0.11	0.831 ± 0.11	0.765 ± 0.11
10 µM, coculture fibroblast: Hs343T	0.721 ± 0.033	0.675 ± 0.024	0.644 ± 0.026	0.608 ± 0.024	0.585 ± 0.025	0.536 ± 0.024	0.542 ± 0.011	0.533 ± 0.011	0.5411 ± 0.0017
10 µM, coculture fibroblast: WS1	0.816 ± 0.014	0.768 ± 0.016	0.75 ± 0.021	0.673 ± 0.025	0.642 ± 0.016	0.618 ± 0.014	0.592 ± 0.019	0.566 ± 0.014	0.561 ± 0.013
100 µM, coculture fibroblast: C12385	0.8441 ± 0.0072	0.8187 ± 0.0071	0.8312 ± 0.0041	0.785 ± 0.014	0.765 ± 0.011	0.7605 ± 0.0071	0.738 ± 0.01	0.719 ± 0.0089	0.718 ± 0.018
100 µM, coculture fibroblast: H6013	0.882 ± 0.0093	0.8564 ± 0.0029	0.84 ± 0.03	0.866 ± 0.033	0.865 ± 0.023	0.897 ± 0.019	0.8772 ± 0.0015	0.866 ± 0.014	0.841 ± 0.003
100 µM, coculture fibroblast: H6019	0.84 ± 0.012	0.825 ± 0.018	0.8362 ± 0.0075	0.822 ± 0.021	0.83 ± 0.027	0.84 ± 0.039	0.827 ± 0.042	0.824 ± 0.052	0.823 ± 0.056
100 µM, coculture fibroblast: H6076	0.792 ± 0.011	0.737 ± 0.02	0.712 ± 0.011	0.6977 ± 0.0037	0.676 ± 0.0086	0.6504 ± 0.0019	0.666 ± 0.0083	0.6699 ± 0.0022	0.673 ± 0.0093
100 µM, coculture fibroblast: H6231	0.822 ± 0.021	0.774 ± 0.019	0.745 ± 0.017	0.716 ± 0.031	0.681 ± 0.044	0.645 ± 0.043	0.622 ± 0.029	0.598 ± 0.036	0.58 ± 0.023
100 µM, coculture fibroblast: HADF	0.8673 ± 0.0056	0.8522 ± 0.0073	0.86386 ± 0.00023	0.8677 ± 0.0064	0.8647 ± 0.0049	0.873 ± 0.0092	0.835 ± 0.029	0.826 ± 0.021	0.784 ± 0.038
100 µM, coculture fibroblast: HCFa	0.8512 ± 0.0012	0.8434 ± 0.0048	0.8333 ± 0.0065	0.835 ± 0.011	0.8336 ± 0.0028	0.864 ± 0.015	0.818 ± 0.024	0.836 ± 0.018	0.786 ± 0.016
100 µM, coculture fibroblast: HCPF	0.8202 ± 0.0018	0.7868 ± 0.0057	0.771 ± 0.021	0.725 ± 0.014	0.701 ± 0.015	0.676 ± 0.018	0.645 ± 0.026	0.63 ± 0.015	0.624 ± 0.0018
100 µM, coculture fibroblast: HHSteC	0.8831 ± 0.0013	0.8806 ± 0.0043	0.8644 ± 0.00098	0.8618 ± 0.0085	0.868 ± 0.014	0.896 ± 0.029	0.834 ± 0.022	0.832 ± 0.034	0.792 ± 0.035
100 µM, coculture fibroblast: HMF	0.862 ± 0.052	0.846 ± 0.079	0.832 ± 0.092	0.8 ± 0.084	0.786 ± 0.085	0.752 ± 0.1	0.731 ± 0.067	0.702 ± 0.053	0.684 ± 0.051
100 µM, coculture fibroblast: HPFa	0.946 ± 0.014	0.9433 ± 0.0044	0.94837 ± 5.2e-05	0.9425 ± 0.0082	0.959 ± 0.018	0.832 ± 0.19	0.931 ± 0.042	0.927 ± 0.032	0.879 ± 0.036
100 µM, coculture fibroblast: HUF	0.9044 ± 0.0025	0.8635 ± 0.0075	0.8908 ± 0.0065	0.85055 ± 3.7e-05	0.8207 ± 0.0022	0.814 ± 0.0016	0.7884 ± 0.0017	0.7905 ± 0.0018	0.79962 ± 0.00033
100 µM, coculture fibroblast: Hs5	0.826 ± 0.021	0.793 ± 0.029	0.786 ± 0.021	0.73 ± 0.015	0.715 ± 0.016	0.674 ± 0.0086	0.6715 ± 0.0045	0.6432 ± 0.0037	0.6326 ± 0.0014
100 µM, coculture fibroblast: Hs27A	0.864 ± 0.0099	0.8369 ± 0.0061	0.8304 ± 0.0024	0.825 ± 0.0032	0.822 ± 0.0095	0.866 ± 0.021	0.801 ± 0.024	0.797 ± 0.027	0.742 ± 0.033
100 µM, coculture fibroblast: Hs343T	0.85968 ± 0.00041	0.8075 ± 0.0043	0.7858 ± 0.0036	0.7451 ± 0.0069	0.713 ± 0.0017	0.6747 ± 0.00097	0.6492 ± 0.0012	0.632 ± 0.0077	0.629 ± 0.011
100 µM, coculture fibroblast: WS1	0.8433 ± 0.0023	0.8037 ± 0.0043	0.808 ± 0.011	0.753 ± 0.012	0.736 ± 0.017	0.735 ± 0.015	0.715 ± 0.015	0.693 ± 0.013	0.681 ± 0.0083

± gives the standard deviation of the averaged measurements. Values are relative to the signal before dosing, not to a vehicle control; the signal also falls without drug.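 Fibroblast labels name human fibroblasts: mostly primary ones from tissues such as uterus (C12385, HUF), lung (H6013), bone (Hs27A), adrenal (HADF) and skin (WS1), plus mammary HMF and breast cancer-associated Hs343T. The cancer cells are basal-like or mesenchymal-like triple-negative breast cancer lines. The paper calls a changed response a hit when it shifts by more than 3x the replicate standard deviation. The tissue of the other fibroblasts is not given here.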
